Source: article PMC5327418

Protein sequences, listed by entry. Tags and fused reporters are not part of them.
UniProt P32569: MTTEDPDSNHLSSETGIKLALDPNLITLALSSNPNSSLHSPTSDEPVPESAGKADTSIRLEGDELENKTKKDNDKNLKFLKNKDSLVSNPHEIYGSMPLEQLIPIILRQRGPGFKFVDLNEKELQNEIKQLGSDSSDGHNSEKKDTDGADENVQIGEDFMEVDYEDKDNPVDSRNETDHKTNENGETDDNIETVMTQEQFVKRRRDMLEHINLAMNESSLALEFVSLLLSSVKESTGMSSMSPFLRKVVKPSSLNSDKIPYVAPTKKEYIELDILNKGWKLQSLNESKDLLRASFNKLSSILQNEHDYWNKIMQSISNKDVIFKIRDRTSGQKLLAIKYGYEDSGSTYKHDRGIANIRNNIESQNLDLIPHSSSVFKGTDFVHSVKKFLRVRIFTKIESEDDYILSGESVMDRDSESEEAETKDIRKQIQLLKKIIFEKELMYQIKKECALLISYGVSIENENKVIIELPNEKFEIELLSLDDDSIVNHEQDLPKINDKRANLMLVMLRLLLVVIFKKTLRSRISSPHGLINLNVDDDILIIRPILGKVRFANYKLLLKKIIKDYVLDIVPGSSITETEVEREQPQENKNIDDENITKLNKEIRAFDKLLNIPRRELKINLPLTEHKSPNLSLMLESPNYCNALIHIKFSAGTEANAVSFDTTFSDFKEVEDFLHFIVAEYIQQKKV

Target: Med17-HA (S. cerevisiae (endogenous in S288c)) (UniProt P32569)
Test: affinity purification with mass spectrometry; CoIP of Med17-HA on anti-HA magnetic beads from cryoground yeast lysate, 2 h at 4 °C; 20 mM HEPES pH 7.5, 300 mM KOAc, 10% glycerol, 0.01% NP-40, 6 mM MnSO4, 1 mM DTT, Cyanase nuclease; parallel control CoIP from 15N-labelled wild type cells, mixing after purification (MAP); GeLC-MS/MS, three biological replicates

Row | Binder | binding
1 | Swc4 (protein, UniProt P53201 1-476) MSSSDIFDVLNIKQKSRSPTNGQVSVPSSSAANRPKPQVTGMQRELFNLLGENQPPVVIKSGNNFKEKMLSTSKPSPWSFVEFKANNSVTLRHWVKGSKELIGDTPKESPYSKFNQHLSIPSFTKEEYEAFMNENEGTQKSVESEKNHNENFTNEKKDESKNSWSFEEIEYLFNLCKKYDLRWFLIFDRYSYNNSRTLEDLKEKFYYTCRNYFKASDPSNPLLSSLNFSAEKEIERKKYLQRLLSRSAAEIAEEEALVVESKKFEMAAKRTLAERESLLRLLDSPHSDQTITQYLTSQGMSQLYNALLADKTRKRKHDLNIPENPWMKQQQQFAQHRQLQQLNVKKSEVKENLSPKKTKRQRQEMQTALKRKSESAYAEQLLKDFNSDERKALGVITHGEKLSPGVYLRSTKLSTFKPALQNKILAILQELSLPSRPVMPSFDVMERQEELLKKINTLIDLKKHVDKYEAGMSITK | binds
2 | Bdf1 (protein, UniProt P35817 1-686) MTDITPVQNDVDVNGNNVNDDVSSNLKRPIDQGDPSNGLAEEENPANNQLHLKKARLDGDALTSSPAGLAENGIEGATLAANGENGYNATGSGAEDEQQGLKKEEGGQGTKQEDLDENSKQELPMEVPKEPAPAPPPEPDMNNLPQNPIPKHQQKHALLAIKAVKRLKDARPFLQPVDPVKLDIPFYFNYIKRPMDLSTIERKLNVGAYEVPEQITEDFNLMVNNSIKFNGPNAGISQMARNIQASFEKHMLNMPAKDAPPVIAKGRRSSAQEDAPIVIRRAQTHNGRPKRTIHPPKSKDIYPYESKKPKSKRLQQAMKFCQSVLKELMAKKHASYNYPFLEPVDPVSMNLPTYFDYVKEPMDLGTIAKKLNDWQYQTMEDFERDVRLVFKNCYTFNPDGTIVNMMGHRLEEVFNSKWADRPNLDDYDSDEDSRTQGDYDDYESEYSESDIDETIITNPAIQYLEEQLARMKVELQQLKKQELEKIRKERRLARGSKKRGKRSKGRSGSKNASSKGRRDKKNKLKTVVTYDMKRIITERINDLPTSKLERAIDIIKKSMPNISEDDEVELDLDTLDNHTILTLYNTFFRQYESSSGASNGLDGTSGVTRDASSLSPTSAGSRKRRSKALSQEEQSRQIEKIKNKLAILDSASPLSQNGSPGQIQSAAHNGFSSSSDDDVSSESEEE | binds
3 | Gcr2 (protein, UniProt Q01722 1-534) MHHQTKLDVFIIRAYNLLSNESVISGASLQSVTNSPQTTTNTPSGMVNGAVGTGIANPTGLMGSDSTPNIDEIITSTGSNALTKTNSDSANGTPNGNSSSTSAISNASNPATTGNNASSSATSNGIYTQAQYSQLFAKISKLYNATLSSGSIDDRSTSPKSAIELYQRFQQMIKELELSFDASPYAKYFRRLDGRLWQIKTDSELENDELWRLVSMSIFTVFDPQTGQILTQGRRKGNSLNTSTKGSPSDLQGINNGNNNGNNGNIGNGSNIKNYGNKNMPNNRTKKRGTRVAKNAKNGKNNKNSNKERNGITDTSAFSNTTISNPGTNMLFDPSLSQQLQKRLQTLSQDVNSRSLTGYYTQPTSPGSGGFEFGLSHADLNPNASSNTMGYNTMSNNGSHSWKRRSLGSLDVNTLDDEAVEELLQLTNTSKRQRPMTTAAEGALINDGPDTNLNANNTQMKVDLNPSNSMGPIDTEAVIRPLKEAYDAIISEKGQRIVQLERELELQRQETQWLRKMLIEDMGCVRSMLRDLQR | binds
4 | Ioc2 (protein, UniProt Q12072 1-812) MRTKRTRGTRNVGASMPAGAANADSEDWKEYVSEDIIAQLNKHQLPYSEILDEKIADLANHWHFQYVMAWLSNVCESYTTTTFNTDQYGGSSTKCLWKNIKFDEGVFVTDVFSKIDGKDSNYYNDEVDVDEGSQNLYDRIRLQLLHQLAGNKSGQLKDWNVIVNHHLQNSSAYSDLVTDLPFLELEIARQFDIIYSIIKLIEMKNMIFKNYLANNLHLFTFSEVILDDDNSGGEEMKSLFALPNVGVLVKKTIHRVKEGSSSQVSQTLNIPIKLQNCTIKESDPDIPDSVELIHLEYSHDIDAYLQSITIDYDVITTNWGSMLEYWSENKSSKAIDEFITNLIPVYAEHRLYSAKLLANREKERAIAELMTRRKRSSRLVAKEEENKKKDLESEWFEKLDEREQFIRHRNKLVSKEIKKIKDLLWNQLWQLYDQDYRDEKLTRRNELKDRSGSGTPFFETSLGREEDNPLNEIDIGVLDHGPNFQSSIIPVEPPIPGTVGPLQTGDVPELPSDFCITKEELDELANYGIFTPQQEPDNQDSVFQCPGEPELAPMIITEDTETDLFNNRPLICCDHCYRWQHWECQPPKIIELISSTTKSPQHTLSQRDFGVIIMGNSHGNRRSSRRPQSTLEPSTKSSRPTDKRKPLSECSTFICAWCIRDLELELRNIFVPELKIIRAKQRKQQEDRERRKKMKEEKKRLEELAKKRELTESVSPPVFNNAFANMSSSTTPSIAAYEKTNPAINPAPNVNAAHPIITYSQQTGSKTVPQAPQAPQTSQASIQPQQQQQQQQQQQPLHPKEQNFHFQFPPTN | binds
5 | Isw2 (protein, UniProt Q08773 1-1120) MTTQQEEQRSDTKNSKSESPSEVLVDTLDSKSNGSSDDDNIGQSEELSDKEIYTVEDRPPEYWAQRKKKFVLDVDPKYAKQKDKSDTYKRFKYLLGVTDLFRHFIGIKAKHDKNIQKLLKQLDSDANKLSKSHSTVSSSSRHHRKTEKEEDAELMADEEEEIVDTYQEDIFVSESPSFVKSGKLRDYQVQGLNWLISLHENKLSGILADEMGLGKTLQTISFLGYLRYVKQIEGPFLIIVPKSTLDNWRREFLKWTPNVNVLVLHGDKDTRADIVRNIILEARFDVLITSYEMVIREKNALKRLAWQYIVIDEAHRIKNEQSALSQIIRLFYSKNRLLITGTPLQNNLHELWALLNFLLPDIFGDSELFDEWFEQNNSEQDQEIVIQQLHSVLNPFLLRRVKADVEKSLLPKIETNVYVGMTDMQIQWYKSLLEKDIDAVNGAVGKREGKTRLLNIVMQLRKCCNHPYLFEGAEPGPPYTTDEHLIFNSGKMIILDKLLKRLKEKGSRVLIFSQMSRLLDILEDYCYFRDFEYCRIDGSTSHEERIEAIDEYNKPNSEKFVFLLTTRAGGLGINLVTADTVILFDSDWNPQADLQAMDRAHRIGQKKQVHVYRFVTENAIEEKVIERAAQKLRLDQLVIQQGTGKKTASLGNSKDDLLDMIQFGAKNMFEKKASKVTVDADIDDILKKGEQKTQELNAKYQSLGLDDLQKFNGIENQSAYEWNGKSFQKKSNDKVVEWINPSRRERRREQTTYSVDDYYKEIIGGGSKSASKQTPQPKAPRAPKVIHGQDFQFFPKELDALQEKEQLYFKKKVNYKVTSYDITGDIRNEGSDAEEEEGEYKNAANTEGHKGHEELKRRIEEEQEKINSAPDFTQEDELRKQELISKAFTNWNKRDFMAFINACAKYGRDDMENIKKSIDSKTPEEVEVYAKIFWERLKEINGWEKYLHNVELGEKKNEKLKFQETLLRQKIEQCKHPLHELIIQYPPNNARRTYNTLEDKFLLLAVNKYGLRADKLYEKLKQEIMMSDLFTFDWFIKTRTVHELSKRVHTLLTLIVREYEQPDANKKKRSRTSATREDTPLSQNESTRASTVPNLPTTMVTNQKDTNDHVDKRTKIDQEA | binds
6 | Yo11a (protein, UniProt Q92392 1-440) MESQQLSNYPQISHGSACASVTSKEVHTNQDPLDVSASKTEECEKASTKANSQQTTTPASSAVPENPHHASPQPASVPPPQNGPYPQQCMMTQNQANPSGWSFYGHPSMIPYTPYQMSPMYFPPGPQSQFPQYPSSVGTPLSTPSPESGNTFTDSSSADSDMTSTKKYVRPPPMLTSPNDFPNWVKTYIKFLQNSNLGGIIPTVNGKPVRQITDDELTFLYNTFQIFAPSQFLPTWVKDILSVDYTDIMKILSKSIEKMQSDTQEANDIVTLANLQYNGSTPADAFETKVTNIINRLNNNGIHINNKVACQLIMRGLSGEYKFLRYTRHRHLNMTVAELFLDIHAIYEEQQGSRNSKPNYRRNLSDEKNDSRSYTNTTKPKVIARNPQKTNNSKSKTARAHNVSTSNNSPSTDNDSISKSTTEPIQLNNKHDLHLRPGTY | binds
7 | Yap1 (protein, UniProt P19880 1-650) MSVSTAKRSLDVVSPGSLAEFEGSKSRHDEIENEHRRTGTRDGEDSEQPKKKGSKTSKKQDLDPETKQKRTAQNRAAQRAFRERKERKMKELEKKVQSLESIQQQNEVEATFLRDQLITLVNELKKYRPETRNDSKVLEYLARRDPNLHFSKNNVNHSNSEPIDTPNDDIQENVKQKMNFTFQYPLDNDNDNDNSKNVGKQLPSPNDPSHSAPMPINQTQKKLSDATDSSSATLDSLSNSNDVLNNTPNSSTSMDWLDNVIYTNRFVSGDDGSNSKTKNLDSNMFSNDFNFENQFDEQVSEFCSKMNQVCGTRQCPIPKKPISALDKEVFASSSILSSNSPALTNTWESHSNITDNTPANVIATDATKYENSFSGFGRLGFDMSANHYVVNDNSTGSTDSTGSTGNKNKKNNNNSDDVLPFISESPFDMNQVTNFFSPGSTGIGNNAASNTNPSLLQSSKEDIPFINANLAFPDDNSTNIQLQPFSESQSQNKFDYDMFFRDSSKEGNNLFGEFLEDDDDDKKAANMSDDESSLIKNQLINEEPELPKQYLQSVPGNESEISQKNGSSLQNADKINNGNDNDNDNDVVPSKEGSLLRCSEIWDRITTHPKYSDIDVDGLCSELMAKAKCSERGVVINAEDVQLALNKHMN | binds
8 | Imb3 (protein, UniProt P32337 1-1089) MSALPEEVNRTLLQIVQAFASPDNQIRSVAEKALSEEWITENNIEYLLTFLAEQAAFSQDTTVAALSAVLFRKLALKAPPSSKLMIMSKNITHIRKEVLAQIRSSLLKGFLSERADSIRHKLSDAIAECVQDDLPAWPELLQALIESLKSGNPNFRESSFRILTTVPYLITAVDINSILPIFQSGFTDASDNVKIAAVTAFVGYFKQLPKSEWSKLGILLPSLLNSLPRFLDDGKDDALASVFESLIELVELAPKLFKDMFDQIIQFTDMVIKNKDLEPPARTTALELLTVFSENAPQMCKSNQNYGQTLVMVTLIMMTEVSIDDDDAAEWIESDDTDDEEEVTYDHARQALDRVALKLGGEYLAAPLFQYLQQMITSTEWRERFAAMMALSSAAEGCADVLIGEIPKILDMVIPLINDPHPRVQYGCCNVLGQISTDFSPFIQRTAHDRILPALISKLTSECTSRVQTHAAAALVNFSEFASKDILEPYLDSLLTNLLVLLQSNKLYVQEQALTTIAFIAEAAKNKFIKYYDTLMPLLLNVLKVNNKDNSVLKGKCMECATLIGFAVGKEKFHEHSQELISILVALQNSDIDEDDALRSYLEQSWSRICRILGDDFVPLLPIVIPPLLITAKATQDVGLIEEEEAANFQQYPDWDVVQVQGKHIAIHTSVLDDKVSAMELLQSYATLLRGQFAVYVKEVMEEIALPSLDFYLHDGVRAAGATLIPILLSCLLAATGTQNEELVLLWHKASSKLIGGLMSEPMPEITQVYHNSLVNGIKVMGDNCLSEDQLAAFTKGVSANLTDTYERMQDRHGDGDEYNENIDEEEDFTDEDLLDEINKSIAAVLKTTNGHYLKNLENIWPMINTFLLDNEPILVIFALVVIGDLIQYGGEQTASMKNAFIPKVTECLISPDARIRQAASYIIGVCAQYAPSTYADVCIPTLDTLVQIVDFPGSKLEENRSSTENASAAIAKILYAYNSNIPNVDTYTANWFKTLPTITDKEAASFNYQFLSQLIENNSPIVCAQSNISAVVDSVIQALNERSLTEREGQTVISSVKKLLGFLPSSDAMAIFNRYPADIMEKVHKWFA | binds

No constants are given. Whether binding was seen depends on the method and setting. In cells and extracts the contact can be indirect. A yes stands for co-enrichment or nearness to the bait. Other partners may have been found.
